Literature values as cited in patent US7531713B2, “Assay for toxin induced neuronal degeneration and viability in C. elegans” (Vanderbilt University, priority 2001, dated 2009).
For at least one compound, name, drawing or mass did not settle the structure.

Target: T1, CeDAT (Caenorhabditis elegans, UniProt Q03614)
T1 sequence (Q03614 1-615): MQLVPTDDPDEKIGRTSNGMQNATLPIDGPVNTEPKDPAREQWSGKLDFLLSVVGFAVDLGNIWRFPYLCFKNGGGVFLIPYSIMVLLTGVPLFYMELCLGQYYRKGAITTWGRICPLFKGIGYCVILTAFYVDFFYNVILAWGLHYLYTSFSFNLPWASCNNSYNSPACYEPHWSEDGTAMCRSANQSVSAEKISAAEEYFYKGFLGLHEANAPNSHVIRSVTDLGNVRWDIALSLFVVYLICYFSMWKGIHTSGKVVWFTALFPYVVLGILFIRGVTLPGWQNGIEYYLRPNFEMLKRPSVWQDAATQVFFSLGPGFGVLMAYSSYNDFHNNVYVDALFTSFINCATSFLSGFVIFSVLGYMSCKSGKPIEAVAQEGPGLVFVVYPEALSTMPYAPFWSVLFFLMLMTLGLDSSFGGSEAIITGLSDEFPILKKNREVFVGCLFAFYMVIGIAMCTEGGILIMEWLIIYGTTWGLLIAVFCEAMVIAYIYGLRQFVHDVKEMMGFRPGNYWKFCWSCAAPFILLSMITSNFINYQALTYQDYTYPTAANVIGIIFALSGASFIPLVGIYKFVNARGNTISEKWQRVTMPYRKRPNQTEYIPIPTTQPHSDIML
Conditions: mammalian cells expressing CeDAT; potencies comparable to human DAT; cited from earlier work

COC(=O)[C@H]1[C@@H](OC(=O)c2ccccc2)C[C@@H]2CC[C@H]1N2C [cocaine]
Sensitivity of CeDAT-mediated DA transport to antagonists/substrates: sensitive
